Structures were worked out from names or drawings and are uncertain.

Chains of the proteins cited; added tags and fusions are not shown. Residues count along the entry.
UniProt P28335, 33-458 limits assumed: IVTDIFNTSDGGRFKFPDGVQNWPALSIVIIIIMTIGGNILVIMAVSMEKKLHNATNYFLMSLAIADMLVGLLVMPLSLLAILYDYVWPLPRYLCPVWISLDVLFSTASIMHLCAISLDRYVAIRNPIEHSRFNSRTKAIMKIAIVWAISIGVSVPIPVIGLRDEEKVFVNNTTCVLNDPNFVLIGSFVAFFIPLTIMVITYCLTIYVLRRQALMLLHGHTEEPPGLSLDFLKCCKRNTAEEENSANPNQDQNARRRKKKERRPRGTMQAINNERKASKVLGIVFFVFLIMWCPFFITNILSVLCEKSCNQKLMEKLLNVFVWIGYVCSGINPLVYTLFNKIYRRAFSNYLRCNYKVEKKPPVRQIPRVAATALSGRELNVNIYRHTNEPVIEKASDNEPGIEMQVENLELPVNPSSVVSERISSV

For the experiment, the target named is human recombinant 5-HT2c receptor (Homo sapiens, UniProt P28335). In words: FLIPR fluorescent Ca2+ mobilisation agonist assay in CHO K1 cells (Method 1). It counts as cell-based. Conditions: tested form: TFA.

Broadly, the EC50 is the midpoint of the concentration-response curve. As to `COc1ccc(COc2nc(Cc3ccccc3)nc3c2CCNCC3)cc1`, the EC50 (agonist affinity, FLIPR) was determined as 541 nM. Further, the Emax % (efficacy, percentage of mean maximal response to 10 μM 5-HT) came to 82.3%.
